Assay results taken from PMC6714504.
No constants are given. Whether binding was seen depends on the method and setting. Binding seen in cells or lysates may run through a third protein. Some results given as binding are weak or reduced against the parent protein; the word gives no strength. For part of these data: Tags and fused reporters may be left off the sequences shown. One block for each molecule: values may come before it.

Sequences of proteins named here, by UniProt entry; tags and fusion partners are left off.
UniProt Q92993: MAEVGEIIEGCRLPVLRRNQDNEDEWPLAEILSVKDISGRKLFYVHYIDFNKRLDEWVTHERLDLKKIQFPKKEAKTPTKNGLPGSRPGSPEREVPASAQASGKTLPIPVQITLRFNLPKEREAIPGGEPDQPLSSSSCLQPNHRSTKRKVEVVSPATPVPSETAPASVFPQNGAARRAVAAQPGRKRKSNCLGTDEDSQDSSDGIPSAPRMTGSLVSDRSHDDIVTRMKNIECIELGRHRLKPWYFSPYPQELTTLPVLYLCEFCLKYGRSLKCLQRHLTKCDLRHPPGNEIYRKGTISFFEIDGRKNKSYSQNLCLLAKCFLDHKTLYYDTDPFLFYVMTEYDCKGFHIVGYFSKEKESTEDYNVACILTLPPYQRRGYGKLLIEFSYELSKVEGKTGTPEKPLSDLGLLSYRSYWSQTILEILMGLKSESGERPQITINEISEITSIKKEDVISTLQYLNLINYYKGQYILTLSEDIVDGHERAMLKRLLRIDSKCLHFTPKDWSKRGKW

Tests used:
[1] = molecular target: T1, KDM2B, exogenous, tagged (MG-63 cells) (UniProt Q8NHM5); test: co-IP; MG-63 cell lysates, exogenous tagged proteins, immunoprecipitated with anti-HA antibody, antibodies against Myc and Flag to detect Tip60
T1 sequence: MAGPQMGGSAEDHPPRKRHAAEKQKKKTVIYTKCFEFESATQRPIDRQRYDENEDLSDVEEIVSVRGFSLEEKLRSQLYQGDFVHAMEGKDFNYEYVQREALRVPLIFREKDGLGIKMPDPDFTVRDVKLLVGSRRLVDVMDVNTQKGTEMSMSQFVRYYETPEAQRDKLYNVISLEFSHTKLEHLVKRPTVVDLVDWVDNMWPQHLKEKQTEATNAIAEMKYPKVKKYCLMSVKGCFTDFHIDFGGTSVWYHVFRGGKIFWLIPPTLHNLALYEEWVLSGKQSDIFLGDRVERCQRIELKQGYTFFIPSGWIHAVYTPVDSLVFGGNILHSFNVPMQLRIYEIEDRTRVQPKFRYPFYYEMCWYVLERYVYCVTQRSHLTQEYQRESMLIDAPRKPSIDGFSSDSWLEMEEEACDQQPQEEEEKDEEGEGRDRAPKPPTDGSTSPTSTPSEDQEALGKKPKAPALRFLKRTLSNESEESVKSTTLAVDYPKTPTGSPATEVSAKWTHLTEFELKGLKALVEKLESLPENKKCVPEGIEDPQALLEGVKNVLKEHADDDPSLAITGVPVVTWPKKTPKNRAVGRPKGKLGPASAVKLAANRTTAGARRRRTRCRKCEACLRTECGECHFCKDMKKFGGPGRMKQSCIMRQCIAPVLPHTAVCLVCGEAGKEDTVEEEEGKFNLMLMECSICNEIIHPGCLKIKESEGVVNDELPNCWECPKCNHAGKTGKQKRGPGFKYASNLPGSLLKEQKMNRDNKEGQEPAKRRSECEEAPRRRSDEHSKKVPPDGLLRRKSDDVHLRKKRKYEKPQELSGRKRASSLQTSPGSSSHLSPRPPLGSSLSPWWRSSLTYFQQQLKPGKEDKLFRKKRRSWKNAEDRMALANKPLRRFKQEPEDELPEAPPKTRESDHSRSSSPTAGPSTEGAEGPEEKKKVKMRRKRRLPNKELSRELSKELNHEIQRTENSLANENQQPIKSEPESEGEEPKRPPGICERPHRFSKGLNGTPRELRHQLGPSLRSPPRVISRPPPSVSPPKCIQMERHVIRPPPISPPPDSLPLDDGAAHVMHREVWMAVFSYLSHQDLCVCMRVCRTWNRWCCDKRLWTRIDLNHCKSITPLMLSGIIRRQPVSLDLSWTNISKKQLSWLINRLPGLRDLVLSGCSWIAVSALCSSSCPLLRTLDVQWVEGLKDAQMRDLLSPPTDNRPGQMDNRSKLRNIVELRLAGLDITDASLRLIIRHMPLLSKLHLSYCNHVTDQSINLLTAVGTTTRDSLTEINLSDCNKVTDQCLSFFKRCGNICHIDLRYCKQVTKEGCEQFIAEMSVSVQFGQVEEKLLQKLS

GST-KDM2B = molecular target: T2, GST-KDM2B (UniProt Q8NHM5); test: pull-down; GST pull-down of GST-KDM2B with human HA-tagged Tip60
T2 sequence: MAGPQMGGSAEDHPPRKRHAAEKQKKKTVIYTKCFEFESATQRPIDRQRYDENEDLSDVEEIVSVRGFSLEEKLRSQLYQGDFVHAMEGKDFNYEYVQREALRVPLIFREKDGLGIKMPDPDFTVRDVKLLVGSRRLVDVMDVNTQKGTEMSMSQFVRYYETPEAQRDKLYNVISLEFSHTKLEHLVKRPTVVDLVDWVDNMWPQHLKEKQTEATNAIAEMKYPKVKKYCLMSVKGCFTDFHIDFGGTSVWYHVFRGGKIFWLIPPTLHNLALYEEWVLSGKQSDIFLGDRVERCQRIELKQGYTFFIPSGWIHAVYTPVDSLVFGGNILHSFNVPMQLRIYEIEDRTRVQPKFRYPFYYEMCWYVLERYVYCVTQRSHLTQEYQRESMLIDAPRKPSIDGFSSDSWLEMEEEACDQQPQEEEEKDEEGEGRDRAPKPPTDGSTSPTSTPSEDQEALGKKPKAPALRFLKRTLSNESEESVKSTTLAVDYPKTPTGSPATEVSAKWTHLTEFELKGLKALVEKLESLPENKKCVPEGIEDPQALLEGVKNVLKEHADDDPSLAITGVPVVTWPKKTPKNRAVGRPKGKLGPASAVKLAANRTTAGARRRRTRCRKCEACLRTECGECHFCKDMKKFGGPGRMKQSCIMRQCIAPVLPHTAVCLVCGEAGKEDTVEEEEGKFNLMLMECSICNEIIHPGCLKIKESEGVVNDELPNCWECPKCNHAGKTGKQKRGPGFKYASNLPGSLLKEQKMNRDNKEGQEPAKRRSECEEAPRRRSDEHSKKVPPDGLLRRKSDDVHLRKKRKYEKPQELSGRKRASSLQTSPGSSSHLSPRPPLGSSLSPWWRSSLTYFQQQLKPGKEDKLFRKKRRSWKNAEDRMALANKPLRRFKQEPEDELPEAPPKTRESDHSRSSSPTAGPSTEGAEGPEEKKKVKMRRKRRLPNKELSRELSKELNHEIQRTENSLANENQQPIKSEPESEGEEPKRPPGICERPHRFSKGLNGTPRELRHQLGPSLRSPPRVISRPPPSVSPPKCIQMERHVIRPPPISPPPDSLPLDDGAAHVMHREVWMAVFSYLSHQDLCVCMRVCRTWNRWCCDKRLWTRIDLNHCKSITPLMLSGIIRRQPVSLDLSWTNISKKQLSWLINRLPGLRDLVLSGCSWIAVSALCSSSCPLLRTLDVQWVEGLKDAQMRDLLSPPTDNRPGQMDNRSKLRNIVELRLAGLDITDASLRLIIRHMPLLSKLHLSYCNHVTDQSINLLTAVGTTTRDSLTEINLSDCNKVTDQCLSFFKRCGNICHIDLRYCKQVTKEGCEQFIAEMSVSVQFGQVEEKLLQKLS

[2] = molecular target: Tip60 (endogenous, HOS cells) (human (endogenous in HOS)) (UniProt Q92993); test: co-IP; HOS cell lysates, immunoprecipitated with anti-Tip60 antibody, blotted for KDM2B and Tip60; endogenous proteins

- binding [1]: binds
Molecule: Tip60, exogenous, tagged (MG-63 cells) (from UniProt Q92993 1-513)

- binding (GST-KDM2B): binds
Molecule: human HA-tagged Tip60 (from UniProt Q92993 1-513)

- binding [2]: binds
B1: KDM2B (endogenous, HOS cells) (protein, UniProt Q8NHM5 1-1336)
chain: MAGPQMGGSAEDHPPRKRHAAEKQKKKTVIYTKCFEFESATQRPIDRQRYDENEDLSDVEEIVSVRGFSLEEKLRSQLYQGDFVHAMEGKDFNYEYVQREALRVPLIFREKDGLGIKMPDPDFTVRDVKLLVGSRRLVDVMDVNTQKGTEMSMSQFVRYYETPEAQRDKLYNVISLEFSHTKLEHLVKRPTVVDLVDWVDNMWPQHLKEKQTEATNAIAEMKYPKVKKYCLMSVKGCFTDFHIDFGGTSVWYHVFRGGKIFWLIPPTLHNLALYEEWVLSGKQSDIFLGDRVERCQRIELKQGYTFFIPSGWIHAVYTPVDSLVFGGNILHSFNVPMQLRIYEIEDRTRVQPKFRYPFYYEMCWYVLERYVYCVTQRSHLTQEYQRESMLIDAPRKPSIDGFSSDSWLEMEEEACDQQPQEEEEKDEEGEGRDRAPKPPTDGSTSPTSTPSEDQEALGKKPKAPALRFLKRTLSNESEESVKSTTLAVDYPKTPTGSPATEVSAKWTHLTEFELKGLKALVEKLESLPENKKCVPEGIEDPQALLEGVKNVLKEHADDDPSLAITGVPVVTWPKKTPKNRAVGRPKGKLGPASAVKLAANRTTAGARRRRTRCRKCEACLRTECGECHFCKDMKKFGGPGRMKQSCIMRQCIAPVLPHTAVCLVCGEAGKEDTVEEEEGKFNLMLMECSICNEIIHPGCLKIKESEGVVNDELPNCWECPKCNHAGKTGKQKRGPGFKYASNLPGSLLKEQKMNRDNKEGQEPAKRRSECEEAPRRRSDEHSKKVPPDGLLRRKSDDVHLRKKRKYEKPQELSGRKRASSLQTSPGSSSHLSPRPPLGSSLSPWWRSSLTYFQQQLKPGKEDKLFRKKRRSWKNAEDRMALANKPLRRFKQEPEDELPEAPPKTRESDHSRSSSPTAGPSTEGAEGPEEKKKVKMRRKRRLPNKELSRELSKELNHEIQRTENSLANENQQPIKSEPESEGEEPKRPPGICERPHRFSKGLNGTPRELRHQLGPSLRSPPRVISRPPPSVSPPKCIQMERHVIRPPPISPPPDSLPLDDGAAHVMHREVWMAVFSYLSHQDLCVCMRVCRTWNRWCCDKRLWTRIDLNHCKSITPLMLSGIIRRQPVSLDLSWTNISKKQLSWLINRLPGLRDLVLSGCSWIAVSALCSSSCPLLRTLDVQWVEGLKDAQMRDLLSPPTDNRPGQMDNRSKLRNIVELRLAGLDITDASLRLIIRHMPLLSKLHLSYCNHVTDQSINLLTAVGTTTRDSLTEINLSDCNKVTDQCLSFFKRCGNICHIDLRYCKQVTKEGCEQFIAEMSVSVQFGQVEEKLLQKLS
